Assay results taken from publication doi:10.1101/2020.03.11.987446.
No constants are given. Whether binding was seen depends on the method and setting. Binding can be weak; no strength is given. Tags and fused reporters may be left off the sequences shown.

Experiments:
[1] = target: collagen I (collagen I pre-coated 96-well plates, Greiner 655956); assay: fluorescence of protein bound to coated microplates
[2] = target: collagen IV from human placenta (human); assay: fluorescence

binding [1]: binds
binding [2]: binds
Binder: WREPSFMALS [ColBD-Twitch (N-terminal 6xHis tag, vWF collagen-binding peptide … and Twitch-2B 54S+)]
